± gives the standard deviation of the averaged measurements. Most values lie at the floor of the assay. Slopes are relative: functional sequences can read slightly below zero.

This series has as its system Saccharomyces cerevisiae PS128 hsf1 delta, HSF1(1-493) fusion. Put plainly: growth estimate (transactivation domain function in HSF1 fusion, heat-shock survival) (a.u. (slope of normalised read count over time)); higher = stronger growth at 37°C, i.e. more transactivation activity. The conditions noted are these: library: random library.
For RLSAGRKPRIILHVKRRSKR, the growth estimate is less than -0.25. In the case of WWKRRGAWISAGCGGSHLDD, the growth estimate is less than -0.25. Next, DRRRLGPRTASRNRDGLGMT: less than -0.25. Then AVRILMQRLWRLTTSLDQTG, with less than -0.25; and SAYALPFHAPGGLS, with less than -0.25; and ASVEECALRGGAFLAETGRV, with -0.23.

With IHDTDFRRGRATRSGKNSAS, the growth estimate was less than -0.25. Then PGVEFHPRGTPV, with less than -0.25; and VHRSTVFPGRAASDALYNVD, with less than -0.25.

With MPEDDLV, the growth estimate was less than -0.25. In the case of NMTRQRYLLSIGLELIFRRE, the growth estimate is less than -0.25. Next, VSSLSGNGDIA: less than -0.25. Then SLYAGKYGQDNAEPSLRACC, with less than -0.25. In the case of PAVFVECERRPELLRIGLST, the growth estimate was less than -0.25. RSQDRLYGCAQQRRLGVPTQ: the growth estimate was less than -0.25. Next, VVCVTACRIA: less than -0.25; RLGCETVKSFLGVPSGITAR: less than -0.25. Then LDR, with less than -0.25; and RHMEYHRPSASITFALTSGS, with less than -0.25. Then MSVYAGVRCIKTSNSPGSLR, with less than -0.25. On to HNRSVTRQDGRIRARFIKRR, for which the growth estimate is less than -0.25. Take SLDTAESVSMLYKGIHLTDL: the growth estimate was -0.168. Regarding LASRVRPLWGYVTFKIERWE, the growth estimate is less than -0.25. Then TTGSQGSTRCRVCGLPYGRS, with less than -0.25; and GSPGRSTQRLSDRAKATRPT, with less than -0.25. Next, SPRLEEIRSRVTVWSSGLSP: less than -0.25; ISMVV: less than -0.25.

Consider VNSHCLTIWVSLIIFLRSQH, for which the growth estimate is less than -0.25. In the case of SPMHTCTGRSVGLDRVFTPV, the growth estimate was less than -0.25. Next, RTAFNHRRALVYCYHAVRSW: less than -0.25; GRSVSVFGRLGLHNLVKTSG: less than -0.25; GPTTCH: less than -0.25.

With PRRIAH, the growth estimate was less than -0.25. Next, FSW: less than -0.25; MWSILR: less than -0.25; IRVGW: less than -0.25. Turning to RKAVAPNDHSGRRNQTTLQQ, the growth estimate is less than -0.25.

Consider WLGIGWLHAIGYAGVGSVVS, for which the growth estimate is less than -0.25. ELGD: the growth estimate was less than -0.25. Next, QWLGAAG: less than -0.25; QLQECIKGYKPEKTCSPVQR: less than -0.25; SSGHGW: less than -0.25. Regarding TQTASVTVSPGYEEHAIYVS, the growth estimate is -0.25. Turning to MILGHLARRYVSRK, the growth estimate was less than -0.25.

As to LCGLGRGIQRHAPL, the growth estimate is less than -0.25. Then WNPSVNARSMSCVESKPE, with less than -0.25; and QIKSAFGGSSVWAARESEDM, with less than -0.25; and VTSLLLGVFFASLCQALTG, with -0.219. In the case of VRNR, the growth estimate is -0.246. Next, VSHGGSTARGKADVAHVDVS: less than -0.25.

For the substance AAY, the growth estimate is less than -0.25. Next, CIWTCRDLRPSRSTIPMNQG: less than -0.25; IREAS: less than -0.25. Next, KQTEPHPIDKRRMLNGPFHG: less than -0.25. On to LDGYLVPITVSLHSVLQLLS, for which the growth estimate was less than -0.25. With PYMTGLEVQNRSTG, the growth estimate is less than -0.25. Next, RVLKTCLGRDRSSREDRDSV: less than -0.25; STRAARLAVNWITEATLPQV: less than -0.25. Next, RDVGCGCGQSS: -0.245. RGTG: the growth estimate is less than -0.25. Then LLRYGSDQMLES, with less than -0.25.

Consider ITSRSEDIRETSALVQSDGV, for which the growth estimate is less than -0.25.

Take AVRYSVCRFQPGEIKSCEHA: the growth estimate was less than -0.25. Next, PGN: less than -0.25; LSIGRTGGSPRESAIGRST: less than -0.25; HPGVRSGTVRVNPVASAAPH: less than -0.25. Next, RVI: -0.247 ± 0.0037.

With PCGGSVSERSGSGVRYLVGF, the growth estimate is less than -0.25. Then RIQVRT, with less than -0.25. Next, PMADDSGLEWVVF: less than -0.25; SVLSESIQSDLASARSRNDL: less than -0.25. Next, GGRGSRM: less than -0.25; HIAGAPNPLGSASQVGEYCA: less than -0.25; SATRKVEHIAR: less than -0.25. VRRRNHKARVVLKR: the growth estimate is less than -0.25. As to VRIRRQE, the growth estimate is less than -0.25. Next, REKDNRFLWITYGRGGSDEN: 0.139.

As to SALNPDATSLASRGRPYTRP, the growth estimate was less than -0.25. Take EQDG: the growth estimate was -0.111. Next, HVT: less than -0.25. Then SGTRMRRSPWAKAKVPQSRA, with less than -0.25. Next, IFVG: less than -0.25; LRGLGRPCVEFQLSRLVLFE: less than -0.25; DCVPSVVNPSSADTNVCRPC: less than -0.25.

As for GHFALS, the growth estimate is less than -0.25. Then TSGFNVRLCSSLADNRLPSR, with less than -0.25. Then RNRFAAGAVTLDHYSSPISS, with less than -0.25; and TVAFVSLLSHG, with less than -0.25; and LAE, with less than -0.25.

SQIEYNVANLLPCRDWSFPN: the growth estimate was less than -0.25. In the case of HSRNPSDTATSHVGFGHAAS, the growth estimate was less than -0.25. Next, GNSHRMGSLESEL: less than -0.25; TRWVLK: less than -0.25. YRELSITLRYSSKKMDSREY: the growth estimate is less than -0.25. In the case of RGSSVTVEYENSISSEVASS, the growth estimate was less than -0.25. Then SPL, with less than -0.25; and KKILCP, with less than -0.25. Then KWLQSVARAEKEVGLNARKM, with less than -0.25; and VGTLEGLCDHGTGTTVNNFT, with less than -0.25; and KSRSMRLIRKKEANERSQGS, with less than -0.25. With ASPYRQALHLHSPSLSYCPH, the growth estimate is less than -0.25. As for YSDSSGSKQARMEPPDSSQA, the growth estimate was less than -0.25.

On to VIPRELLMGFWRTDHCINRL, for which the growth estimate is less than -0.25. Next, WHVVRRTPLAQFCFIARKLV: less than -0.25; KFVILVCMYCGMSDPGLFGV: less than -0.25; QPYVHSSVNGRT: less than -0.25. Then REIVFPNDNLAEYDYARSTH, with less than -0.25; and SNWVE, with less than -0.25.

With YPLRP, the growth estimate is less than -0.25. Then FPHP, with less than -0.25; and RCKS, with less than -0.25. With RVAPRLRCHHTPCPTGCEFF, the growth estimate was less than -0.25. Then DRLTLVLLVGLVAAGSLWNP, with less than -0.25. In the case of DTTGVYKIQTWHCRSLGRTR, the growth estimate was less than -0.25. On to VCHWSPRR, for which the growth estimate was less than -0.25.

(Values after the supplement of paper PMC5949888.)
